Laboratory results reported in PubChem BioAssay AID2685 (National Center for Advancing Translational Sciences (NCATS), 2010).
The whole screen tested about 320,000 compounds, of which about 2,100 (0.66%) were called active. This list was built around the results that the source calls inconclusive (neither active nor inactive); the mix of calls is not that of the screen. The call rests on the fitted dose curve; in most records, active means well fitted inhibition curve with a large enough effect in the signal ratio, with a control signal flat (not every such curve was filed as active); inconclusive means small, poorly fitted or top-dose-only effect, or effect the other way, or a change in a side signal; inactive means flat fitted curve, though single readings scatter; the % refers to the signal ratio. A potency beside an inconclusive call is a rough fit, not a confirmed value.
On the % scale 0 is the no-effect control and ±100 the full control effect; potency means the concentration at half of the fitted maximal effect.

Assay: qHTS Assay for Lipid Storage Modulators in Drosophila S3 Cells
Conditions: BODIPY lipid droplet fluorescence, 18-24 h, cells fed with added oleic acid; lipid storage change, negative = inhibition: at 46.1 µM (top of the series) unless noted
Procedure, shortened: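 Laser-scanning cytometry quantifies lipid droplet accumulation (500–530 nm total intensity; droplet/cell object ratio) in oleic acid-fed (400 uM added) Drosophila S3 cells treated with a concentration series. 20 uM Triacsin C defined 100% inhibition.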
In the case of Cc1cc(C(=O)N2CCc3ccccc3C2)n[nH]1, the Potency is reported as inconclusive: 29.1 µM [activator, partial curve]. In the case of CC[C@H]1c2[nH]c3ccccc3c2C[C@H]2C(=O)N(c3ccc(F)cc3)C(=O)N21, the lipid storage change, negative = inhibition is reported as inconclusive: 28.5%. With COc1cc(OC)c(OC)cc1CN1CCCC(C(=O)c2ccc3c(c2)OCO3)C1 (stereo not given) the lipid storage change, negative = inhibition was inconclusive: -9.46%. With Cc1cccnc1NC(=S)Nc1ccc(F)cc1F the lipid storage change, negative = inhibition was inconclusive: -5.64%. In the case of O=C(c1cc(-c2ccc(O)cc2)on1)N1CCN(c2ccccc2)CC1, the Potency is reported as inconclusive: 9.2 µM [activator, partial curve]. With O=C(CSc1ccc(Cl)cc1)N1CCOCC1 the lipid storage change, negative = inhibition was inconclusive: 48.5%. For COc1ccc(C)cc1S(=O)(=O)Nc1cccc(-c2ccc(N3CCCCCC3)nn2)c1, the Potency was inconclusive: 5.17 µM [activator, full curve]. For CCCSc1nnc2nc(C)cc(C)n12, the Potency was inconclusive: 0.0052 µM [falling, full curve, poor fit]. In the case of COc1ccccc1N(C)S(=O)(=O)c1ccc(C(=O)NCCc2ccc(F)cc2)cc1, the Potency is reported as inconclusive: 29.1 µM [falling, single point]. With COc1ccc(-n2nc([N+](=O)[O-])c(=NCCc3cccc(C)c3)n2O)cc1 the lipid storage change, negative = inhibition was inconclusive: -53.3%. In the case of O=C(c1ccc(OC2CCN(C/C=C/c3ccccc3)CC2)cc1)N1CCCCC1, the Potency is reported as inconclusive: 25.9 µM [rising, single point]. With O=C(COc1ccccc1)NNC(=O)c1cc2ccccc2o1 the lipid storage change, negative = inhibition was inconclusive: 19%. In the case of Cc1ccnc(NC(=O)CNC(=O)c2sc3ccccc3c2Cl)c1, the lipid storage change, negative = inhibition is reported as inconclusive: 14.7%. In the case of COc1ccc(NC(=O)CN2C(=O)C(C)Oc3ccc(C)cc32)cc1 (stereo not given), the lipid storage change, negative = inhibition is reported as inconclusive: -29.9%. In the case of CCS(=O)(=O)N1N=C(c2ccccc2)CC1c1ccc2nccnc2c1 (stereo not given), the lipid storage change, negative = inhibition is reported as inconclusive: 21.7%. For O=C(CSCc1cnn(-c2ccccc2)c1-n1cccc1)NCc1cccnc1, the lipid storage change, negative = inhibition was inconclusive: 6.25%. In the case of Cc1ccc(Nc2nc3ccccc3nc2Nc2c(C)n(C)n(-c3ccccc3)c2=O)cc1, the lipid storage change, negative = inhibition is reported as inconclusive: 9.88%. In the case of O=C(CN1CCCC1)NCC1(c2ccccc2)CCOCC1, the Potency is reported as inconclusive: 4.61 µM [rising, single point]. In the case of CC(C)(C)C(=O)Nc1nc(-c2ccc3c(c2)OCO3)cs1, the Potency is reported as inconclusive: 0.82 µM [activator, single point]. For CC1(C)NC(=O)N(CCCCOc2ccc3ccccc3c2Cl)C1=O, the lipid storage change, negative = inhibition was inconclusive: 395%. With CCOC(=O)c1cc(-c2ccccc2)n(Cc2cc(CC)no2)n1 the Potency was active: 18.4 µM. In the case of Cc1ccnc(SCc2nc3ccccc3s2)n1, the lipid storage change, negative = inhibition is reported as inconclusive: 256%. For CC(=O)Nc1cccc(N(C)C)c1, the lipid storage change, negative = inhibition was inconclusive: -3.6%. With CC(=O)Nc1ccc(S(=O)(=O)N2CCN(CC(O)COc3ccc4ccccc4c3)CC2)cc1 (stereo not given) the Potency was inconclusive: 20.6 µM [activator, partial curve]. For NCCCn1c(C(=O)c2ccc(Cl)cc2)c2ccc([N+](=O)[O-])cc2[n+]1[O-], the lipid storage change, negative = inhibition was inconclusive: -74.8%. For COc1cc(OC)cc(C(=O)Nc2ccc3c(c2)COC3=O)c1, the lipid storage change, negative = inhibition was inconclusive: 11.2%. With COc1cc2c(cc1NC(=O)Cn1cnc3c1c(=O)n(C)c(=O)n3C)oc1ccccc12 the lipid storage change, negative = inhibition was inconclusive: 23.3%. With COc1ccc2c(c1)[nH]c1c(Cl)ncnc12 the lipid storage change, negative = inhibition was inconclusive: -24.2%. In the case of Cc1onc(-c2ccccc2)c1-c1ccnn1C(=O)NC(C)C, the lipid storage change, negative = inhibition is reported as “inactive”. In the case of CCCOc1ccc(OCCOCCNCc2ccccc2)cc1, the lipid storage change, negative = inhibition is reported as inconclusive: 13.6%. With Cn1c(=O)c2sccc2n2c(CCCC(=O)NCc3ccc(F)cc3)nnc12 the Potency was inconclusive: 29.1 µM [falling, single point]. With CCCS(=O)(=O)N1CCC(C(=O)NCCCN2CCCC2=O)CC1 the lipid storage change, negative = inhibition was inconclusive: -6.31%. With COC(=O)[C@H](CC(C)C)NC(=O)N1CCCCC1 the Potency was inconclusive: 29.1 µM [falling, single point]. In the case of COc1ccc(NC(=O)CN2CCOCC2)cc1S(=O)(=O)N1CCCCC1, the Potency is reported as inconclusive: 1.46 µM [activator, partial curve]. In the case of Cc1nn(C)cc1/C=N/NC(=O)Cn1cncn1, the lipid storage change, negative = inhibition is reported as inconclusive: -33.6%. For CCC(C)(C)C(=O)Nc1cccc(Cl)c1C, the lipid storage change, negative = inhibition was inconclusive: -16.6%. In the case of Cc1nc(C)c(-c2csc(Nc3ccc(C(=O)O)c(O)c3)n2)s1, the lipid storage change, negative = inhibition is reported as inconclusive: 0.0971%. For COc1ccccc1N(C(=O)CNC(=O)c1ccco1)C(C(=O)NC1CCCC1)c1ccco1 (stereo not given), the Potency was inconclusive: 1.84 µM [activator, partial curve]. For CCOC1(OCC)N=C(N)C2(C#N)C(c3cccc(OC)c3OC)C12C#N (stereo not given), the lipid storage change, negative = inhibition was inconclusive: -28.2%. In the case of O=c1c2c3nc4ccccc4nc3n(-c3ccc4c(c3)OCCO4)c2ncn1CC1CCCO1 (stereo not given), the lipid storage change, negative = inhibition is reported as inconclusive: 52%. With CC1Cc2nc(SCC(=O)NCc3ccco3)n(Cc3ccccc3)c(=O)c2S1 (stereo not given) the Potency was inconclusive: 32.6 µM [activator, single point]. In the case of CC1Sc2ccc(S(=O)(=O)N3CCC(C(=O)Nc4ccc(Cl)cc4)CC3)cc2NC1=O (stereo not given), the lipid storage change, negative = inhibition is reported as “inactive”. In the case of COCCCNC(=O)CC(NS(=O)(=O)c1ccc(C)cc1)c1ccc(OC)cc1 (stereo not given), the Potency is reported as inconclusive: 0.116 µM [falling, full curve, poor fit]. For Cc1ccc(C(C(=O)NC(C)(C)C)N(CC2CCCO2)C(=O)c2csnn2)cc1 (stereo not given), the lipid storage change, negative = inhibition was inconclusive: 33.5%. In the case of CCOc1ccc(/C=C2\SC(=S)N(NS(=O)(=O)c3ccccc3)C2=O)cc1OC, the lipid storage change, negative = inhibition is reported as inconclusive: -6.76%. With Cc1ccc(C)c(NC(=O)COC(=O)c2cc3ccccc3oc2=O)c1 the Potency was inconclusive: 0.82 µM [falling, full curve, poor fit]. In the case of Cc1csc(SCC(=O)NC(C)c2ccc(F)cc2)n1 (stereo not given), the lipid storage change, negative = inhibition is reported as inconclusive: 23.2%. For O=C(CCc1ccccc1)N/N=C/c1cc(Br)ccc1O, the Potency was inconclusive: 23.1 µM [falling, single point]. In the case of Cc1cc(C)c2c(c1)/C(=N/NC(=O)c1cc(C)oc1C)CCC2, the lipid storage change, negative = inhibition is reported as inconclusive: 16%. In the case of CCOC(=O)Cn1nnnc1C(CC)N(Cc1cc2ccc(C)cc2[nH]c1=O)C1CCCC1 (stereo not given), the lipid storage change, negative = inhibition is reported as inconclusive: 86%.
